Data as given in US10640547B2, “Immunotherapy against melanoma and other cancers” (IMMATICS BIOTECHNOLOGIES GMBH, priority 2016, dated 2020).

System: HLA molecules of melanoma, other tumor and normal tissue samples
Experiment: Identification and relative quantitation of tumor associated peptides presented on the cell surface (HLA immunoprecipitation, label-free LC-MS)
Design: species or system human; key to Peptide Presentation (presentation score): very highly over-presented on tumors compared to a panel of normal tissues (+++); highly over-presented on tumors compared to a panel of normal tissues (++); over-presented on tumors compared to a panel of normal tissues (+)
Details: for Peptide Presentation (presentation score): over-presentation on tumors compared to a panel of normal tissues; for Additional Entities (additional tumor types on which the peptide was found) / relevant organs/diseases (additional tumor types on which the peptide was found): over-presented on more than 5% of the measured tumor samples, or presented on more than 5% with ratio of geometric means tumor vs normal tissues larger than 3

| Substance | Peptide Presentation (presentation score) | Additional Entities (additional tumor types on which the peptide was found) | relevant organs/diseases (additional tumor types on which the peptide was found) |
| --- | --- | --- | --- |
| 67 (YVDSEGIVRM; listed as Homo sapiens) [compound 67] | +++ |  |  |
| 68 (FLAEAARSL; listed as Homo sapiens) [compound 68] | +++ | HCC |  |
| 69 (IIDDKPIGL; listed as Homo sapiens) [compound 69] | +++ |  |  |
| 70 (LIDEAAQML; listed as Homo sapiens) [compound 70] | +++ |  |  |
| 71 (SLDEVAVSL; listed as Homo sapiens) [compound 71] | +++ |  |  |
| 72 (TLLEVDAIVNA; listed as Homo sapiens) [compound 72] | +++ |  |  |
| 73 (ELDKIYETL; listed as Homo sapiens) [compound 73] | +++ |  |  |
| 74 (GTIPLIESL; listed as Homo sapiens) [compound 74] | +++ |  |  |
| 75 (FMYAGQLTL; listed as Homo sapiens) [compound 75] | +++ |  |  |
| 76 (QIDSIHLLL; listed as Homo sapiens) [compound 76] | +++ |  |  |
| 77 (SIDDVVKKL; listed as Homo sapiens) [compound 77] | +++ |  |  |
| 78 (ALKDLVNLI; listed as Homo sapiens) [compound 78] | +++ | HCC |  |
| 79 (AVDNILLKL; listed as Homo sapiens) [compound 79] | +++ |  |  |
| 80 (FADELSHLL; listed as Homo sapiens) [compound 80] | +++ |  | AML |
| 81 (FLDDGNQML; listed as Homo sapiens) [compound 81] | +++ |  |  |
| 82 (GIDDLHISL; listed as Homo sapiens) [compound 82] | +++ |  |  |
| 83 (GLDKVITVL; listed as Homo sapiens) [compound 83] | +++ |  |  |
| 84 (GLDTILQNL; listed as Homo sapiens) [compound 84] | +++ | GC, AML |  |
| 86 (HTLPHEIVVNL; listed as Homo sapiens) [compound 86] | +++ |  |  |
| 87 (IIDPPLHGQLL; listed as Homo sapiens) [compound 87] | +++ |  |  |
| 88 (ILDGIIREL; listed as Homo sapiens) [compound 88] | ++ |  |  |
| 89 (ILDNSPAFL; listed as Homo sapiens) [compound 89] | +++ |  |  |

| Substance | Peptide Presentation (presentation score) | Additional Entities (additional tumor types on which the peptide was found) | relevant organs/diseases (additional tumor types on which the peptide was found) |
| --- | --- | --- | --- |
| 90 (ILDYIHNGL; listed as Homo sapiens) [compound 90] | +++ |  |  |
| 91 (ILLDRLFSV; listed as Homo sapiens) [compound 91] | +++ | HNSCC |  |
| 92 (KLPGFPTQDDEV; listed as Homo sapiens) [compound 92] | +++ |  |  |
| 93 (LLAKAVQNV; listed as Homo sapiens) [compound 93] | +++ |  |  |
| 94 (LLDAFSIKL; listed as Homo sapiens) [compound 94] | +++ |  |  |
| 95 (LLDALQHEL; listed as Homo sapiens) [compound 95] | +++ |  |  |
| 96 (LLDMSLVKL; listed as Homo sapiens) [compound 96] | +++ |  |  |
| 97 (NLDATVTAL; listed as Homo sapiens) [compound 97] | +++ |  |  |
| 98 (NLPNTNSILGV; listed as Homo sapiens) [compound 98] | +++ |  |  |
| 99 (NLPSELPQL; listed as Homo sapiens) [compound 99] | +++ |  |  |
| 100 (NLREILQNV; listed as Homo sapiens) [compound 100] | +++ | HCC |  |
| 101 (NVDENVAEL; listed as Homo sapiens) [compound 101] | +++ |  |  |
| 102 (RLPDQFSKL; listed as Homo sapiens) [compound 102] | +++ | AML |  |
| 103 (SLDAVMPHL; listed as Homo sapiens) [compound 103] | +++ |  |  |
| 104 (SLDQIIQHL; listed as Homo sapiens) [compound 104] | +++ | AML |  |
| 105 (SLKQTVVTL; listed as Homo sapiens) [compound 105] | +++ | HCC |  |
| 106 (TLSEICEFI; listed as Homo sapiens) [compound 106] | +++ |  |  |
| 107 (TLVAFLQQV; listed as Homo sapiens) [compound 107] | +++ |  |  |
| 108 (TVIRPLPGL; listed as Homo sapiens) [compound 108] | +++ |  |  |
| 109 (VIDDLIQKL; listed as Homo sapiens) [compound 109] | +++ | AML |  |
| 110 (VLDTLTKVL; listed as Homo sapiens) [compound 110] | +++ |  |  |
| 111 (VLDVSFNRL; listed as Homo sapiens) [compound 111] | +++ |  |  |

| Substance | Peptide Presentation (presentation score) | Additional Entities (additional tumor types on which the peptide was found) | relevant organs/diseases (additional tumor types on which the peptide was found) |
| --- | --- | --- | --- |
| 112 (VLPAVLTRL; listed as Homo sapiens) [compound 112] | +++ |  |  |
| 113 (VLYSLVSKI; listed as Homo sapiens) [compound 113] | +++ |  |  |
| 114 (VVDDIVSKL; listed as Homo sapiens) [compound 114] | +++ | GC, AML |  |
| 115 (YIDDVFMGL; listed as Homo sapiens) [compound 115] | +++ |  |  |
| 116 (LMDETMKEL; listed as Homo sapiens) [compound 116] | ++ |  | NSCLC, Brain Cancer, HCC, NHL, BRCA, OC, Urinary bladder cancer, Gallbladder Cancer, Bile Duct Cancer |
| 117 (KQQASQVLV; listed as Homo sapiens) [compound 117] | ++ |  |  |
| 118 (TMIEICEKL; listed as Homo sapiens) [compound 118] | ++ |  | NSCLC, AML, OC |
| 119 (SLGLGFISRV; listed as Homo sapiens) [compound 119] | ++ |  | BRCA |
| 120 (QLMEGKVVL; listed as Homo sapiens) [compound 120] | ++ | HNSCC | NHL |
| 121 (FLEDLVPYL; listed as Homo sapiens) [compound 121] | + |  | CLL, NHL, AML |
| 122 (YVDDFGVSV; listed as Homo sapiens) [compound 122] | ++ |  | AML |
| 123 (LLGEGIPSA; listed as Homo sapiens) [compound 123] |  | HNSCC | Urinary bladder cancer, Uterine Cancer |
| 124 (FLPQKIIYL; listed as Homo sapiens) [compound 124] |  | NHL | GC, BRCA, OC, Uterine Cancer |
| 125 (YLFAFLNHL; listed as Homo sapiens) [compound 125] | +++ |  | AML, OC, Uterine Cancer |
| 127 (TLISDIEAVKA; listed as Homo sapiens) [compound 127] | +++ |  | CLL, NHL, Urinary bladder cancer, Uterine Cancer |
| 128 (ALFPGDVDRL; listed as Homo sapiens) [compound 128] |  |  | Brain Cancer, GC, CRC, PC, PrC, BRCA, Esophageal Cancer, Urinary bladder cancer |
| 129 (VLPDDLSGV; listed as Homo sapiens) [compound 129] | + | HCC |  |
| 130 (GLVDVLYTA; listed as Homo sapiens) [compound 130] | + |  | NSCLC, RCC, Brain Cancer, BRCA, Esophageal Cancer, Uterine Cancer |
| 131 (FVDPNGKISL; listed as Homo sapiens) [compound 131] | ++ | Urinary bladder cancer, AML |  |
| 132 (FLDASGAKL; listed as Homo sapiens) [compound 132] | + |  |  |
| 133 (ALDPAYTTL; listed as Homo sapiens) [compound 133] | ++ |  | HCC, CLL, NHL, AML, Uterine Cancer |
| 134 (LLDEVLHTM; listed as Homo sapiens) [compound 134] | +++ |  |  |
